Where a chain is given by its changes, count along the chain named. Results are given in words; binding and its absence hold for the method and conditions named. Some results given as binding are weak or reduced against the parent protein; the word gives no strength. Each block holds one binder with its values, some of them ahead of it.
Experiments:
[1] = target: recombinant human DLL4 (human) (UniProt Q9NR61); experiment: SPR binning, hDLL4 captured by anti-DLL4 Fab
[2] = target: recombinant human DLL4 (C-terminally His-tagged extracellular domain, R&D Systems) (human) (UniProt Q9NR61); experiment: binding ELISA on recombinant human DLL4, OD 450 nm
[3] = target: human DLL4 overexpressed on cells (human) (UniProt Q9NR61); experiment: FACS titration on HEK293-hDLL4 cells, MCF
[4] = target: cynomolgus DLL4 overexpressed on cells (cynomolgus); experiment: FACS titration on HEK293-cDLL4 cells, MCF
[5] = target: recombinant human DLL4 (C-terminally His-tagged extracellular domain, R&D Systems) (human) (UniProt Q9NR61); experiment: binding ELISA on coated recombinant human DLL4 (Example 5.8, Example 7), OD 450 nm

Amino acid sequences for entries named in this document (tags omitted). A change or cut given only in a name is not applied to a line headed by its entry.
UniProt Q9NR61: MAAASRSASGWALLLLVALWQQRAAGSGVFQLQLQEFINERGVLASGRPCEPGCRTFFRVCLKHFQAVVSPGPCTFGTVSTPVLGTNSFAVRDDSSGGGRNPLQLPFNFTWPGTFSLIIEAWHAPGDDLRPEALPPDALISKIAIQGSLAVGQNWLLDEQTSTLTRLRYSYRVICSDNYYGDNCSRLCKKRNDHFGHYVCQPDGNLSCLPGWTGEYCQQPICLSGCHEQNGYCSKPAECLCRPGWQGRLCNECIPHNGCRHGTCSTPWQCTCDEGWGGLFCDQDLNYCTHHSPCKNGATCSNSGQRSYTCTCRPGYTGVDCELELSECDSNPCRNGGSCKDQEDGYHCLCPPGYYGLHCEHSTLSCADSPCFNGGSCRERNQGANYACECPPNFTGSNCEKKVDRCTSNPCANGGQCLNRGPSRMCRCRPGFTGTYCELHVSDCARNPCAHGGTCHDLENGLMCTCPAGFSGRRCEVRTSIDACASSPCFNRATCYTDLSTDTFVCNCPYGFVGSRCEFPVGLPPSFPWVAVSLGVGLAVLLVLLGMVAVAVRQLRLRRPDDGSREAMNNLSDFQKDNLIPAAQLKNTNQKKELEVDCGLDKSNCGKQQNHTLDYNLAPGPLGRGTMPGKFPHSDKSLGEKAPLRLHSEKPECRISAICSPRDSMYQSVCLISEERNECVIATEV

binding [2]: binds
B3: DLLBII129D08 (VHH, not shown: small tags and cut ends)
VHH: EVQLVESGGGLVQAGGSLRLSCAASGRTFSSYAMAWYRQAPGKEREYVAAIRWSGGTAYYADSVQGRFTISRDNAKNTVYLQMNSLKPEDTAVYYCANRAPDTRLEPYLYDYWGQGTQVTVSS

binding [2]: binds
B5: DLLBII129E11 (VHH, not shown: small tags and cut ends)
VHH: B3 VHH with E106R

binding [5]: binds
B7: DLLBII115A05 (VHH, not shown: small tags and cut ends)
VHH: EVQLVESGGGLVQPGGSLRLSCAASGFTFGSYDMSWVRRSPGKGPEWVSSINSGGGSTYYADFVKGRFTISRDNAKNTLYLQMNSLKPEDTAVYYCAADRYIRARQGDYWGAYEYDYWGQGTQVTVSS

binding [5]: binds
B8: DLLBII133A09 (VHH, not shown: small tags and cut ends)
VHH: B7 VHH with S50A, F63Y, R103W, D108E, E114A

binding [5]: binds
B9: DLLBII136C07 (VHH, not shown: small tags and cut ends)
VHH: B7 VHH with F63Y, R103W, D108E

binding [5]: binds
B10: DLLBII133G05 (VHH, not shown: small tags and cut ends)
VHH: B7 VHH with S50A, A61T, F63Y, R103W, D108E, E114A

Second part, the binder before the results:

B1: DLLBII104G01 (VHH)
VHH: EVQLVESGGGLVQAGGSLRLSCAASGFTFDDYAIGWFRQAPGKEREGVSCISSSDGSTYYADSVKGRFTISSDNAKNTVYLQMNSLKPEDTAVYYCATAWCDSSWYRSFVGYWGQGTQVTVSS
binding [1]: binds

B2: DLLBII6B11 (VHH)
VHH: EVQLVESEGGLVQAGGSLRLSCAASGSTFSSYAMGWYRQAPGKQRELVAVISNGGITNYPNSVKGRFTISRDNAKNTVYLQMNSLKPEDTAVYYCFYSGSYYYPTDVHEYDYWGQGTQVTVSS
binding [1]: binds

B4: DLLBII101G08 (VHH, not shown: small tags and cut ends)
VHH: B3 VHH with Y37F, Y47F, P101A, E106G, L109E
binding [2]: binds

B6: DLLBII56H08 (VHH)
VHH: EVQLVESGGGLVQPGGSLRLSCAASGFTFDDYAIGWFRQAPGKEPEEISCISSSGGITYYADSVKGRFTISRDNAKNTVYLQMNSLKPEDTAVYYCATPGIAACRGIHYTGQGTQVTVSS
binding [3]: binds
binding [4]: binds

B11: DLLBII015 (VHH, not shown: small tags and cut ends)
VHH: B7 VHH with F29I, S50A, F63Y, R103W, D108E, E114A
binding [5]: binds

From patent US20140120095A1
